Measured values from article PMC9456173.
Results are given in words; binding and its absence hold for the method and conditions named. In cells and extracts the contact can be indirect. Some entries that bind do so weakly or less than the wild type. Each block holds one molecule with its values, some of them ahead of it.

By UniProt entry, the sequences of proteins in these tests, tags left out.
UniProt P08908: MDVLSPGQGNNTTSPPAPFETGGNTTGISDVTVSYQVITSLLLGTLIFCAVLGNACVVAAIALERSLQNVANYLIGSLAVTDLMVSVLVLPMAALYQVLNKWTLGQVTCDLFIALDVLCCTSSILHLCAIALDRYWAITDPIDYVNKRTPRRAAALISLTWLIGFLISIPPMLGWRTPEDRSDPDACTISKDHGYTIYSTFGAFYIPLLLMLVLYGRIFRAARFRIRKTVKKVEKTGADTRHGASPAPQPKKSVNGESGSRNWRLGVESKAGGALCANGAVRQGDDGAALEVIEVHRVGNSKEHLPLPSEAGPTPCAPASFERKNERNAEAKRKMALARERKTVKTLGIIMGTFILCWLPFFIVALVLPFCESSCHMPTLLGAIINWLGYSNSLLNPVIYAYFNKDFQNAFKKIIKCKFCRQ
UniProt P34972: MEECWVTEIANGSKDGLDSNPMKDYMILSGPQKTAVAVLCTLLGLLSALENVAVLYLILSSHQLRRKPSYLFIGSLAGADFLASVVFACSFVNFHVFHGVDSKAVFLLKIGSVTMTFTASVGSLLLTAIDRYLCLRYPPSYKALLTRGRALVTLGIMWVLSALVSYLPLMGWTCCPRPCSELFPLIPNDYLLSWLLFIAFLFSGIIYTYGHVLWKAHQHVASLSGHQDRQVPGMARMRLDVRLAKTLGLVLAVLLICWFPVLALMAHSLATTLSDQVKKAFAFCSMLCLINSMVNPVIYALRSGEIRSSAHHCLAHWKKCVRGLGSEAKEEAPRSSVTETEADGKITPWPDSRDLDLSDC
UniProt Q64264: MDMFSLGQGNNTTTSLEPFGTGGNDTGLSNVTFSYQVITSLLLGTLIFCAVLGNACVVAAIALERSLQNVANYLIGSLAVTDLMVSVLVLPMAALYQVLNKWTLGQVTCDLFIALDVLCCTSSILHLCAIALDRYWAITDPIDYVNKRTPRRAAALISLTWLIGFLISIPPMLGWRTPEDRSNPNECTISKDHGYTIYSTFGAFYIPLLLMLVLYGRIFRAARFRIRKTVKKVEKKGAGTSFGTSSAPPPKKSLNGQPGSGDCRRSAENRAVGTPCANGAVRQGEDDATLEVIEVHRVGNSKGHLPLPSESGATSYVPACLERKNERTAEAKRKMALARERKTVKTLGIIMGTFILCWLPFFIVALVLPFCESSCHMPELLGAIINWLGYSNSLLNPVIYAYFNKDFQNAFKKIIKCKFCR
UniProt P19327: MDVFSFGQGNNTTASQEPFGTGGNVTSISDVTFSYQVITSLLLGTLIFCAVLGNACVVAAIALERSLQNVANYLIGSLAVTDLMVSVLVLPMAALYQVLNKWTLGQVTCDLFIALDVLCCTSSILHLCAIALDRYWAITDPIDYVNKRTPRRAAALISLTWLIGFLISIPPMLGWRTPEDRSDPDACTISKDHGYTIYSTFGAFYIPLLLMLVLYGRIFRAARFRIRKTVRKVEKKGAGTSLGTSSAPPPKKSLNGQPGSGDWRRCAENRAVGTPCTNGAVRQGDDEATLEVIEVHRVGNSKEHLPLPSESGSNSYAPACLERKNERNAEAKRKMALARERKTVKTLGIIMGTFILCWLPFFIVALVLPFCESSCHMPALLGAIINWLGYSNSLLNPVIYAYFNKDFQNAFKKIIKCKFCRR
UniProt Q92847: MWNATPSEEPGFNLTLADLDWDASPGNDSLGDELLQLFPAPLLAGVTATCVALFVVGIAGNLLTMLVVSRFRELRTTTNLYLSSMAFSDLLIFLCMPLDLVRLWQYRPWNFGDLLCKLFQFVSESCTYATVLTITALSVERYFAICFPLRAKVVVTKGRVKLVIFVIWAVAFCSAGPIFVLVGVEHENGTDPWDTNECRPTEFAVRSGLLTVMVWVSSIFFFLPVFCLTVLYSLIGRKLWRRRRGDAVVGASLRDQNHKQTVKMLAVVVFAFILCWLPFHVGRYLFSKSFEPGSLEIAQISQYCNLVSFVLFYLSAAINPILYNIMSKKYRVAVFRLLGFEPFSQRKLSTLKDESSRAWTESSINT
UniProt P32121: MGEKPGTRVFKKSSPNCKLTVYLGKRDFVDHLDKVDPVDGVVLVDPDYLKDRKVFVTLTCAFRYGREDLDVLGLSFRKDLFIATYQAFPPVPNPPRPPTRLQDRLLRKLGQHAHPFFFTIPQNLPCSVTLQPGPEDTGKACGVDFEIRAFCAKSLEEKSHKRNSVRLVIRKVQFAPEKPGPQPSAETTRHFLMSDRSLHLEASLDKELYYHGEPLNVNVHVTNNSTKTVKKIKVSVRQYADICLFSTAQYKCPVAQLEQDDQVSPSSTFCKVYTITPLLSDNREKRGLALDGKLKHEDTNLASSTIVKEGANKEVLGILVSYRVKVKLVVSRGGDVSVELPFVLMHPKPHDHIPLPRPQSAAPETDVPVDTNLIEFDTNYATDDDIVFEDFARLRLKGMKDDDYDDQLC
UniProt P47936: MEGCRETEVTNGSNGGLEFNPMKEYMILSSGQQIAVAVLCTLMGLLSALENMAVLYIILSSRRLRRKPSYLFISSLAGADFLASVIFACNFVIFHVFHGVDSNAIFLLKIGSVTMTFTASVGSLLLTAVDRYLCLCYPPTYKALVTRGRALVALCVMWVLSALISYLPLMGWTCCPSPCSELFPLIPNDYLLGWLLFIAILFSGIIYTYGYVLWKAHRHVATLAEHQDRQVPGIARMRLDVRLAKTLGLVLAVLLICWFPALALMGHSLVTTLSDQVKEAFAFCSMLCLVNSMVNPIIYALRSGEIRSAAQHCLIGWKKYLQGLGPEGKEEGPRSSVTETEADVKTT

Tests used:
[1] = biological target: serotonin 5HT1A receptor fused to Renilla luciferase (human) (UniProt P08908); experiment: FRET or BRET; BRET saturation in HEK-293T cells: constant cDNA for 5HT1AR-RLuc (1.5 μg; 0.75 μg in the negative control) and increasing cDNA for the YFP fusion (CB2R-YFP 0.2 to 4 μg; GHSR-1a-YFP 0.2 to 2 μg); vehicle pre-treatment 30 min; 5 μM coelenterazine H; HBSS with 0.1% glucose, pH 7.4
[2] = biological target: cannabinoid CB2 receptor fused to YFP (human) (UniProt P34972); experiment: FRET or BRET; β-arrestin 2 recruitment by BRET in HEK-293T cells expressing β-arrestin 2-RLuc, CB2R-YFP and 5HT1AR (CB2-5HT1A-Hets); stimulated with 200 nM serotonin, vehicle pre-treatment; read 25 min after treatment
[3] = biological target: cannabinoid CB2 receptor fused to YFP (human) (UniProt P34972); experiment: condition: only cells pre-treated with 200 nM CBD or 200 nM CBG; FRET or BRET; β-arrestin 2 recruitment by BRET in HEK-293T cells expressing β-arrestin 2-RLuc, CB2R-YFP and 5HT1AR (CB2-5HT1A-Hets); pre-treated with 200 nM CBD or 200 nM CBG, then stimulated with 200 nM serotonin
[4] = biological target: cannabinoid CB2 receptor fused to YFP (human) (UniProt P34972); experiment: FRET or BRET; β-arrestin 2 recruitment by BRET in HEK-293T cells expressing β-arrestin 2-RLuc (1 μg cDNA) and one receptor-YFP (1.5 μg cDNA); stimulated with 200 nM JWH-133 (CB2R, read 25 min after treatment) or 200 nM serotonin (5HT1AR, read 7 min after treatment); pre-treated with vehicle, 200 nM CBD or 200 nM CBG (both partially blocked the agonist's effect)
[5] = biological target: serotonin 5HT1A receptor fused to YFP (human) (UniProt P08908); experiment: as above
[6] = biological target: serotonin 5HT1A receptor, endogenous in mouse primary striatal neurons (mouse (endogenous in primary striatal neurons)) (UniProt Q64264); experiment: proximity ligation; in situ PLA (Duolink) on fixed, permeabilised mouse primary striatal neurons with mouse anti-CB2R and rabbit anti-5HT1AR antibodies; normoxia in complete medium or glucose-oxygen deprivation for 4 h; pre-treated with vehicle, 200 nM CBD or 200 nM CBG for 30 min
[7] = biological target: serotonin 5HT1A receptor, endogenous in Wistar rat brain (rat (endogenous in Wistar rat brain sections)) (UniProt P19327); experiment: proximity ligation; in situ PLA (Duolink) on fixed cortical sections of Wistar rat brains taken 1, 7 or 30 days after hypoxia-ischemia (vehicle or CBD 1 mg/kg) or sham surgery

binding [1]: no binding
Molecule: GHS-R1a receptor fused to YFP (from UniProt Q92847 1-366)

binding [2]: binds
binding [3]: no binding
binding [4]: binds
binding [5]: binds
Molecule: β-arrestin 2 fused to Renilla luciferase (from UniProt P32121 1-409)

binding [6]: binds
Molecule: cannabinoid CB2 receptor, endogenous in mouse primary striatal neurons (from UniProt P47936 1-347)

binding [7]: binds
B1: cannabinoid CB2 receptor, endogenous in Wistar rat brain (receptor, UniProt Q9QZN9 1-360)
chain: MAGCRELELTNGSNGGLEFNPMKEYMILSDAQQIAVAVLCTLMGLLSALENVAVLYLILSSQRLRRKPSYLFIGSLAGADFLASVIFACNFVIFHVFHGVDSRNIFLLKIGSVTMTFTASVGSLLLTAVDRYLCLCYPPTYKALVTRGRALVALGVMWVLSALISYLPLMGWTCCPSPCSELFPLIPNDYLLGWLLFIAILFSGIIYTYGYVLWKAHQHVASLAEHQDRQVPGIARMRLDVRLAKTLGLVMAVLLICWFPALALMGHSLVTTLSDKVKEAFAFCSMLCLVNSMINPIIYALRSGEIRSAAQHCLTGWKKYLQGLGSEGKEEAPKSSVTETEAEVKTTTGPGSRTPGCSNC
